Experimental data from publication PMC11286185.

Biological target: PCDH10-HAV5 (epitope-tagged protocadherin10 from the Pcdh10-HAV5 knock-in mouse line) (mouse)
Assay: affinity purification with mass spectrometry; Co-IP with Pierce anti-HA magnetic beads from lightly fixed (0.1% PFA) P7 Pcdh10-HAV5 telencephalon lysate (250 mM NaCl, 50 mM Tris pH 7.5, 0.05% n-dodecyl-β-D-maltoside); wild-type pups as control; hits chosen by HAV5/wild-type ratio >5; n = 5

B1: ERC2 (protein, UniProt Q6PH08 1-957)
chain: MYGSARTISNLEGSPSRSPRLPRSPRLGHRRTSSGGGGGTGKTLSMENIQSLNAAYATSGPMYLSDHEGVASTTYPKGTMTLGRATNRAVYGGRVTAMGSSPNIASAGLSHTDVLSYTDQHGGLSGSSHHHHHQVPSMLRQVRDSTMLDLQAQLKELQRENDLLRKELDIKDSKLGSSMNSIKTFWSPELKKERVLRKEEAARMSVLKEQMRVSHEENQHLQLTIQALQDELRTQRDLNHLLQQESGNRGAEHFTIELTEENFRRLQAEHDRQAKELFLLRKTLEEMELRIETQKQTLNARDESIKKLLEMLQSKGLPSKSLEDDNERTRRMAEAESQVSHLEVILDQKEKENIHLREELHRRSQLQPEPAKTKALQTVIEMKDTKIASLERNIRDLEDEVQMLKANGVLNTEDREEEIKQIEVYKSHSKFMKTKIDQLKQELSKKESELLALQTKLETLSNQNSDCKQHIEVLKESLTAKEQRAAILQTEVDALRLRLEEKESFLNKKTKQLQDLTEEKGTLAGEIRDMKDMLEVKERKINVLQKKIENLQEQLRDKDKQLTNLKDRVKSLQTDSSNTDTALATLEEALSEKERIIERLKEQRERDDRERLEEIESFRKENKDLKEKVNALQAELTEKESSLIDLKEHASSLASAGLKRDSKLKSLEIAIEQKKEECNKLEAQLKKAHNIEDDSRMNPEFADRLKQLDKEASYYRDECGKAQAEVDRLLEILKEVENEKNDKDKKIAELESLTLRHMKDQNKKVANLKYNQQLEKKKNAQLLEEVRRREDSMVDNSQHLQIEELMNALEKTRQELDATKARLASTQQSLAEKEAHLANLRIERRKQLEEILEMKQEALLAAISEKDANIALLELSASKKKKTQEEVMALKREKDRLVHQLKQQTQNRMKLMADNYDEDHHHYHHHHHHHHHRSPGRSQHSNHRPSPDQDDEEGIWA
- binding: binds

No constants are given. Whether binding was seen depends on the method and setting. In cells and extracts the contact can be indirect. Here binding means that the protein was enriched with, or labelled near, the bait; the list need not be complete.
